Laboratory results as given in patent US20170168041A1 (National University of Singapore, priority 2014, published 2017).

Test: peptide synthesis
Conditions: conjugation step

Substance	conjugation yield	conjugation yield (head-to-tail ring, sequence written open) [%]	final HPLC purity (λ=320 nm, head-to-tail ring, sequence written open) [%]
Alkyne-(Asp-Asp-Asp-Asp-Asp-Val-His-Leu-Gly-Tyr-Ala-Thr) (SEQ ID NO: 7)	˜25%		
Alkyne-(Gly-Val-His-Leu-Gly-Tyr-Ala-Thr) (SEQ ID NO: 6)	˜30%		
TPETP-SS-DEVD-TPS-cRGD		32	97.3
